Test results: patent US20230220399

Amino acid sequences for entries named in this document (tags omitted). Residues count along the entry.
UniProt P02787, 20-698: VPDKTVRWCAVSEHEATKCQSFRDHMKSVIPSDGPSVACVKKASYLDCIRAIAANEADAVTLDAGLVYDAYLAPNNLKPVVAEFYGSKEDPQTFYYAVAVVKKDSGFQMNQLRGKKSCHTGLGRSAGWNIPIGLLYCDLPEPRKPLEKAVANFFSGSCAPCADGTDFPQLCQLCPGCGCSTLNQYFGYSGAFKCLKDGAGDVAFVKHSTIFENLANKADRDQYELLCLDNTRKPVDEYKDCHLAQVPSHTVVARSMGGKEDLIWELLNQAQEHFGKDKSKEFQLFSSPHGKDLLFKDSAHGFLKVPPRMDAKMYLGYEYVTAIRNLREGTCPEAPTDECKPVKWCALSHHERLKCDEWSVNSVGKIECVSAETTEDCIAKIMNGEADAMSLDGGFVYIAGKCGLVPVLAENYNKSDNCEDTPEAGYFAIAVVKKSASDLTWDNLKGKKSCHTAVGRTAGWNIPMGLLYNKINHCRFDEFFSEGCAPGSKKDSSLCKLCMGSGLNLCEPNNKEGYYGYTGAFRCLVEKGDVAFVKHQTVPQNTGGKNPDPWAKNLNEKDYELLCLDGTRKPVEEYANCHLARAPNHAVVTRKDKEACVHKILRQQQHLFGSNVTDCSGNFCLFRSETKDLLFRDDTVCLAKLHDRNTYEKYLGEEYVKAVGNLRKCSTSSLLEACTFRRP

Legend:
[1] = tested on: KRAS wild-type (Homo sapiens); experiment: BLI; conditions: Nap-dU at n (6) positions [4,9,13,19,26,27,28,30,39]; No binding; SB18, 37 C; purified recombinant protein; protein details: His tag, Abcam ab96817; label: 5'-biotin; single-stranded DNA; letters built from the parent sequence and the stated change; variant of AD003
[2] = tested on: KRAS wild-type (Homo sapiens); experiment: binding assay; conditions: Nap-dU at n (6) positions [4,9,13,19,26,27,28,30,39]; No binding; ELISA, SB18, 37 C; purified recombinant protein; protein details: His tag, Abcam ab96817; label: 5'-biotin; single-stranded DNA; letters built from the parent sequence and the stated change; variant of AD003
[3] = target: transferrin (TF) (Homo sapiens) (UniProt P02787); experiment: binding assay; conditions: No binding, ELISA, SB18, 37 C, purified recombinant protein, protein details: Abcam ab155698, single-stranded DNA, letters built from the parent sequence and the stated change
[4] = target: PD-L1 (PD-1/PD-L1 inhibitor screening assay kit) (UniProt Q9NZQ7); experiment: inhibition of the protein; conditions: purified recombinant protein, protein details: BPS kit, single-stranded DNA, letters built from the parent sequence and the stated change, dose not given here

GACTAGCATAAGTCCGGATGGCAGCTTTATGCCGACCAT [AD005]
binding result [1]: no binding | binding result [2]: no binding

GAGTGACCGTCTGCCTGAAAGTCCGGATGGCAGCTTTACAGGCAGAACTAACGTACACAGCCACACCACCAGCC [TD005]
binding result ([3]; Nap-dU at n (6) positions [22,28,35,36,37,49,54], label: …): no binding

GAGTGACCGTCTGCCTGACAACAACGAGTGCGAACTGTACTACTTGATAGAGACCCTCAGCCACACCACCAGCC [AP013]
functional effect of the aptamer ([4]; Nap-dU at n (6) positions [Nap-dU at 29,36,38,41,44,45,48,57], label: 5'-biotin): active

GAGTGACCGTCTGCCTGGATATGCCTCTTCTGCAGTTACGGTGTGATCGCCCAATAGCAGCCACACCACCAGCC [TD009]
binding result ([3]; Nap-dU at n (6) positions [Nap-dU at 20,22,26,28,29,31,36,37,42,44,47,55], label: 5'-biotin): no binding

GAGTGACCGTCTGCCTGGGACTAGCATAAGTCCGGATGGCAGCTTTATGCCGACCATCAGCCACACCACCAGCC [TD001]
binding result ([3]; Nap-dU at n (6) positions [22,27,31,37,44,45,46,48,57], label: 5'-biotin): no binding

TCCCAGGTCGAGCTGTACGCGTGTGTGACCTTACTGATAATCACCTTGAATAGTGTAC [AP031]
functional effect of the aptamer ([4]; Nap-dU at n (6) positions [Nap-dU at 1,8,14,16,22,24,26,31,32,35,38,41,46,47,51,54,56]): active

For some of these results: A negative result means that nothing was seen under these conditions.
